Measurements reported in PubChem BioAssay AID743454 (Peter MacCallum Cancer Centre, 2014).
In all, the deposit lists about 18,000 reagents; shown is an unselected part. 450 of them (2.5%) were called active. 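Single biological run; no consistent viability z cut-off exists, so the class columns, not z-scores, define the calls.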 Unmarked entries are inactive.

Test: 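Knock-downs lowering viability or raising caspase 3/7 activity in vorinostat-treated resistant cells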 (primary screen)
Cell system: human HCT116-VR colon cancer cells, selected for vorinostat resistance
Knock-down reagent: siRNA pool against human genes, 40 nM siRNA pool
Duration: vorinostat for 24 h, read-out about 72 h after transfection
Conditions: vorinostat at 2.5 µM final
Detection: 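Cell viability by CellTiter-Fluor and caspase 3/7 activity by luminescence, each scaled to mock wells per plate, duplicates averaged, then robust z-scored over all plates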
Scale: viability robust z-score: higher = more viable cells than screen typical; caspase robust z-score: higher = more caspase 3/7 activity than screen typical
Call rule: 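a knock-down is a hit when classed RV1 or RV2 for lowered viability, or CA1 or CA2 for caspase activation; those lethal without drug were dropped; hits were retested singly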

LONP2: viability hit class = no change; caspase hit class = no change; viability robust z-score = -1.01; caspase robust z-score = 1.71
CCL19: viability hit class = no change; caspase hit class = no change; viability robust z-score = 0.24; caspase robust z-score = 0.36
PIGM: viability hit class = no change; caspase hit class = no change; viability robust z-score = -0.86; caspase robust z-score = 3.37
TMEM62: viability hit class = no change; caspase hit class = no change; viability robust z-score = -0.2; caspase robust z-score = -0.9
MEAF6: viability hit class = no change; caspase hit class = no change; viability robust z-score = 0.15; caspase robust z-score = -0.99
PP2D1: viability hit class = no change; caspase hit class = no change; viability robust z-score = 0.98; caspase robust z-score = -0.66
ZNF254: viability hit class = no change; caspase hit class = no change; viability robust z-score = 1.64; caspase robust z-score = -1.08
HGFAC: viability hit class = no change; caspase hit class = no change; viability robust z-score = -0.6; caspase robust z-score = 0.44
ZNF385C: viability hit class = no change; caspase hit class = no change; viability robust z-score = 0.66; caspase robust z-score = 0.22
RHNO1: viability hit class = no change; caspase hit class = no change; viability robust z-score = -0.61; caspase robust z-score = -0.77
DRP2: viability hit class = no change; caspase hit class = no change; viability robust z-score = 0.76; caspase robust z-score = -0.66
CARD18: viability hit class = no change; caspase hit class = no change; viability robust z-score = 0.94; caspase robust z-score = -0.65
LIN28B: viability hit class = no change; caspase hit class = no change; viability robust z-score = 0.95; caspase robust z-score = 0.59
CDS2: viability hit class = no change; caspase hit class = no change; viability robust z-score = -0.85; caspase robust z-score = -0.52

2 of these entries, reformatted.
LONP2
- viability hit class: no change
- caspase hit class: no change
- viability robust z-score: -1.01
- caspase robust z-score: 1.71

CCL19
- viability hit class: no change
- caspase hit class: no change
- viability robust z-score: 0.24
- caspase robust z-score: 0.36
